Converted amounts (≈) assume the structure as drawn.
Columns and labels:
[1] = tested on: Leishmania major; test: Antileishmanial activity against Leishmania major promastigotes assessed as reduction in parasite growth incubated for 72 hrs by MTT assay; type: functional, organism-based
[2] = tested on: Leishmania major; test: Antileishmanial activity against Leishmania major amastigotes assessed as reduction in parasite growth incubated for 72 hrs by MTT assay; type: functional, organism-based

For `COc1c(O)cc2c(c1OC)-c1ccc(OC)c(=O)cc1[C@@H](NC(C)=O)CC2` [3-DESMETHYLCOLCHICIN], the IC50 [1] was 0.8 µg/mL (≈ 2.08 µM) and the IC50 [2] was 11.9 µg/mL (≈ 30.9 µM).

— ChEMBL document CHEMBL5532635, “The role of natural anti-parasitic guided development of synthetic drugs for leishmaniasis” (Eur J Med Chem, 2023)
